Data on 1 compound can be found in patent US20150368195A1, “INDOLINE COMPOUNDS FOR TREATMENT AND/OR PREVENTION OF INFLAMMATION DISEASES” (Taipei Medical University, priority 2014, published 2015).

The test system of test [1] is nitric oxide (NO). The test can be described thus: LPS-induced nitric oxide production in RAW 264.7 macrophages. The test is classed as cell-based. The note with it: Mus musculus, RAW264.7; LPS-stimulated RAW 264.7 macrophages; mean ± SEM, three experiments. How it is done: Nitrite concentration was determined using a dilution of sodium nitrite as a standard.
(§1) Furthermore, the anti-inflammatory effects of MPT0G009 was evaluated. […] These supernatants were then assayed for PGE2, NO, and IL-6.

The subject of test [2] is prostaglandin E2 (PGE2). As to the kind of experiment: LPS-induced PGE2 production in RAW 264.7 macrophages. The note with it: Mus musculus, RAW264.7; LPS-stimulated RAW 264.7 macrophages; mean ± SEM, three experiments. It is filed as cell-based. The protocol: The concentrations of PGE2 in the supernatants of RAW 264.7 cell cultures were determined using an EIA kit (R&D Systems, Minneapolis, Minn., USA).
as §1

For test [3], the system named is tumor necrosis factor-α (TNF-α). The test can be described thus: LPS-induced TNF-α production in RAW 264.7 macrophages. Particulars: Mus musculus, RAW264.7, read-out: IC50 TNF-α.

For the compound `O=C(CCCCCCC(=O)Nc1ccccc1)NO` [SAHA, Suberanilohydroxamic Acid, reference compound], the IC50 in test [1] was greater than 10 µM; in test [2] it was 3.22 ± 0.51 µM; in test [3] it was 1.19 ± 0.05 µM.
